Assay results from the supplement of paper PMC4371806.
The full ranking holds about 2,300 compounds; the median of “plate-normalized OD600 growth (mean of duplicates)” is about 0.29, and the lowest 2% start at about 0.22. The list shows a part of the results.

Tested on: Escherichia coli BW25113
Experiment: plate-normalized OD600 growth (mean of duplicates) (OD600 (normalized)); higher = more growth (less inhibition)
Conditions: 10 µM
Description: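 E. coli BW25113 in LB (100 µl, 96-well, no shaking) was exposed to 10 µM of each compound from a ~30,000-member library and grown at 37°C for 24 h or 15°C for 48 h, in duplicate. Growth was read as OD600 and the duplicate ODs were normalized across screening plates to correct plate-to-plate variation. Hits were >3σ below the mean OD600 at 15°C and <2σ below the mean at 37°C.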

Row | Compound | plate-normalized OD600 growth (temperature: 15°C, 48 h) | plate-normalized OD600 growth (temperature: 37°C, 24 h)
1 | O=C(Nc1nc(-c2ccccc2)cs1)C1CC(O)CN1C(=O)Oc1ccccc1 (configuration not stated) | 0.263 | 0.648
2 | Nc1ccccc1C(=O)Nc1cc(C(=O)O)cc(C(=O)O)c1 | 0.232 | 0.625
3 | Cc1ccccc1C(=O)N(CC#N)CC#N | 0.259 | 0.57
4 | COc1cc(/C=C2/C(=N)N3N=C(C(C)C)SC3=NC2=O)ccc1OC(=O)c1ccc(F)cc1 | 0.247 | 0.611
5 | CC(C)c1ccc(OCC(=O)NC(C)c2ccccc2)cc1 (configuration not stated) | 0.245 | 0.602
6 | Cc1nc(-c2nnc(Sc3ccc(C(F)(F)F)cc3[N+](=O)[O-])n2C)cs1 | 0.234 | 0.631
7 | CCCCOc1ccccc1NS(=O)(=O)c1cc(C)sc1C | 0.234 | 0.602
8 | CC12NC(=O)NC1(C)NC(=O)N2 (configuration not stated) | 0.255 | 0.609
9 | CCC(=O)Nc1ccc(N=Cc2cc(OC)c(OC)c(OC)c2)cc1 | 0.242 | 0.604
10 | CCCSc1ccc2nc(N=Cc3cc(OC)c(OC)c(OC)c3)[nH]c2c1 | 0.228 | 0.651
11 | CC(=O)C1C(=O)CC(C)(O)C(C(C)=O)C1c1ccc(Br)cc1 (configuration not stated) | 0.25 | 0.616
12 | CC(C)(C)OC(=O)NC1CCN(C(=O)c2ccc(Cl)cc2Cl)CC1 | 0.244 | 0.629
13 | COC(=O)CN1C(=O)C2(C(C#N)=C(N)Oc3n[nH]c(C)c32)c2ccccc21 (configuration not stated) | 0.207 | 0.65
14 | CC(CCc1ccccc1)Nc1cc(N2CCN(S(=O)(=O)c3ccc(Cl)cc3)CC2)ccc1[N+](=O)[O-] (configuration not stated) | 0.251 | 0.608
15 | O=C(Nc1ccc(Oc2ccc(NC(=O)C(F)(F)F)c(NC(=O)C(F)(F)F)c2)cc1)C(F)(F)F | 0.23 | 0.622
16 | CN(/C=C/[N+](=O)[O-])c1ccccc1 | 0.248 | 0.616
17 | O=C(Nc1ccccc1C(=O)NC1CCCCNC1=O)c1cccs1 (configuration not stated) | 0.253 | 0.638
18 | O=C(NC(c1ccccc1)c1c(O)ccc2ccccc12)C1CCCCC1 (configuration not stated) | 0.248 | 0.603
19 | COC(=O)c1cc(Cl)sc1N | 0.244 | 0.597
20 | C(=C(c1ccccc1)c1ccccc1)N1CCC1 | 0.24 | 0.599
21 | Cc1cc(CN2CC(C)OC(C)C2)cc(C)c1O (configuration not stated) | 0.253 | 0.573

Row | Compound | plate-normalized OD600 growth (temperature: 15°C, 48 h) | plate-normalized OD600 growth (temperature: 37°C, 24 h)
22 | CC1CCN(CCC(=O)Nc2ccc(Cl)cc2)CC1 | 0.261 | 0.643
23 | CC(=O)C1(C)OC(N)=C(C#N)C(c2ccccc2)C1(C#N)C#N (configuration not stated) | 0.236 | 0.634
24 | CC(C)(C)c1cc(SCc2c(C(=O)O)nnn2-c2nonc2N)cc(C(C)(C)C)c1O | 0.259 | 0.62
25 | Cc1nnn(-c2nonc2N)c1C(=O)NNC(=O)c1ccc(Cl)c(Cl)c1 | 0.243 | 0.606
26 | C=CCc1cccc2cc(C(=O)NC3CC(C)(C)NC(C)(C)C3)c(=O)oc12 | 0.229 | 0.653
27 | C=CCN1C(=O)CCNc2ccccc21 | 0.245 | 0.621
28 | Cc1ccc2nc(Nc3nc(C)c4ccccc4n3)[nH]c(=O)c2c1 | 0.253 | 0.612
29 | Cc1ccc2c(c1)N(CCO)C(C)(C)CC2C (configuration not stated) | 0.211 | 0.651
30 | CC(=O)CSc1nsc(SCC(C)=O)c1C#N | 0.235 | 0.609
31 | O=C(Nc1ccc2oc(-c3cccnc3)nc2c1)c1cccs1 | 0.229 | 0.605
32 | Cc1ccc(S(=O)(=O)N=C(Nc2ccc(O)c(Cl)c2)c2ccccc2)cc1 | 0.232 | 0.618
33 | CC(=O)CC(C)(C)S(=O)(=O)c1ccc(C)c(C)c1 | 0.242 | 0.605
34 | CC(C)c1ncc(C(O)c2cccc3ccccc23)n1C (configuration not stated) | 0.249 | 0.63
35 | Cc1ccc(N=Cc2cc(C)cc([N+](=O)[O-])c2O)c(Cl)c1 | 0.238 | 0.625
36 | N#CC1=C(N)S[C@@H](C(=O)c2ccccc2)[C@@H]1c1cccnc1 | 0.249 | 0.612
37 | CC(=Nc1ccccc1S(=O)(=O)O)c1c(O)c2ccccc2n(-c2ccccc2)c1=O | 0.254 | 0.623
38 | O=C1C(=Cc2ccc(Oc3ccc([N+](=O)[O-])cn3)cc2)C(=O)c2ccccc21 | 0.253 | 0.659
39 | Cn1c(CSc2ccccc2)n[nH]c1=S | 0.243 | 0.623
40 | O=C(O)C(C(=O)/C=C/c1ccc2c(c1)OCO2)=C1SCCS1 | 0.257 | 0.621
41 | Cc1nnc(SCC(=O)Nc2ccccn2)[nH]c1=O | 0.257 | 0.623
42 | COc1ccccc1/C=N/Nc1nc(Nc2cccc(Br)c2)nc(N2CCOCC2)n1 | 0.259 | 0.627

An excerpt of these results, as labelled records.
C=CCc1cccc2cc(C(=O)NC3CC(C)(C)NC(C)(C)C3)c(=O)oc12
  plate-normalized OD600 growth (temperature: 15°C, 48 h): 0.229; plate-normalized OD600 growth (temperature: 37°C, 24 h): 0.653
C=CCN1C(=O)CCNc2ccccc21
  plate-normalized OD600 growth (temperature: 15°C, 48 h): 0.245; plate-normalized OD600 growth (temperature: 37°C, 24 h): 0.621
Cc1ccc2nc(Nc3nc(C)c4ccccc4n3)[nH]c(=O)c2c1
  plate-normalized OD600 growth (temperature: 15°C, 48 h): 0.253; plate-normalized OD600 growth (temperature: 37°C, 24 h): 0.612
Cc1ccc2c(c1)N(CCO)C(C)(C)CC2C (configuration not stated)
  plate-normalized OD600 growth (temperature: 15°C, 48 h): 0.211; plate-normalized OD600 growth (temperature: 37°C, 24 h): 0.651

Next part:

Row | Compound | plate-normalized OD600 growth (temperature: 15°C, 48 h) | plate-normalized OD600 growth (temperature: 37°C, 24 h)
43 | Cn1c(=O)n(C)c2cc(/C=N/Nc3ncc(F)c(N4CCOCC4)n3)ccc21 | 0.229 | 0.61
44 | COc1cc(C(=O)Nc2c(C)n(C)n(-c3ccccc3)c2=O)c([N+](=O)[O-])cc1OC | 0.263 | 0.655
45 | CCOC(=O)CC(=O)CSc1nnc(N)s1 | 0.233 | 0.616
46 | CCNCC(O)COc1ccc(C)cc1OC (configuration not stated) | 0.23 | 0.617
47 | Cc1cc(C)c(OCC(=O)N2N=C3CCCCC3C2(O)C(F)(F)F)c(C)c1 (configuration not stated) | 0.23 | 0.641
48 | COc1cccc(C(=O)CSc2nnc(Cn3cnc([N+](=O)[O-])n3)n2C)c1 | 0.245 | 0.655
49 | O=c1[nH]nc(-c2ccc(N3CCN(CCO)CC3)c([N+](=O)[O-])c2)c2ccccc12 | 0.242 | 0.616
50 | O=[N+]([O-])c1ccc(OCCO)c([N+](=O)[O-])c1 | 0.25 | 0.618
51 | COc1nsc2cc([N+](=O)[O-])cc(N)c12 | 0.248 | 0.631
52 | CCOC(=O)C1=C(C)NC(=O)NC1c1ccc(OS(=O)(=O)c2ccc(C)cc2)cc1 (configuration not stated) | 0.231 | 0.624
53 | CCOC(=O)CC(NS(=O)(=O)c1ccc(NC(C)=O)cc1)c1ccc(OCC)cc1 (configuration not stated) | 0.251 | 0.593
54 | OC1CCC(Nc2ncc3nc(Nc4c(F)cc(F)cc4F)n([C@H]4CCOC4)c3n2)CC1 (some centres not stated) | 0.24 | 0.658
55 | CCCCN1/C(=C2/SC(=S)N(CC)C2=O)Sc2ccc(OC)cc21 | 0.252 | 0.607
56 | Cc1c(NC(=O)c2ccc(N)cc2)c(=O)n(-c2ccccc2)n1C | 0.248 | 0.629
57 | CC(=O)/C(=C\N(C)C)Sc1ccc(Cl)cc1 | 0.232 | 0.604
58 | O=C(N/N=C/c1cc2c(cc1Br)OCO2)C1COc2ccccc2O1 (configuration not stated) | 0.235 | 0.608
59 | O=S(=O)(Nc1cccc2cccnc12)c1cc(Cl)c(Cl)cc1Cl | 0.241 | 0.613
60 | O=C(Nc1cccc(-c2nc3cc(Cl)ccc3o2)c1)c1ccc(-c2ccc(Cl)cc2)o1 | 0.25 | 0.61
61 | CC1=CC(C)(C)NC(=S)N1 | 0.24 | 0.601
